# Reference: paper PMC6770469 (International Journal of Molecular Sciences, 2019)
# Strings that start with PEPTIDE1 are HELM notation: dots part the residues, brackets hold end groups and non-standard residues.
# Assay: general procedure: Fmoc solid-phase peptide synthesis
# Conditions: whole synthesis, electrospray mass spectrometry
substance,measurement,value
PEPTIDE1{F.G.G.F.T.G.A.R.K.S.A.R.K.L.A.N}$$$$V2.0,final ms purity,over 98% purity
